Experimental data reported in US5130139A, “Reduction or prevention of skin irritation by drugs” (Alza Corporation, priority 1990, dated 1992).

Assay: in vitro
Conditions: human, skin fibroblasts, ID50 (M)
Source text: The following examples are offered to illustrate the practice of the present invention. It is important to note that this invention is not limited to any particular transdermal device or other form of transdermal delivery, as are commonly known in the art. Nor is this invention limited to a particular formulation. Therefore, the embodiments described herein are merely illustrative and are not intended to limit the scope of the invention in any manner.
Four beta-adrenergic blocking drugs (propranolol, labetalol, pindolol and timolol) were tested for their uptake and their toxicity in human skin fibroblasts.
To estimate the toxicity of the tested compounds, the general procedure of the MTT assay (Swisher et al., Models Dermatol., Maibach and Lowe (eds.), Basel, Karger, vol. 4, pp 131-137, 1989) was used. Cell cultures of fibroblasts were incubated for 16 hours in medium containing a range of concentrations of the drug being tested. […] Absorbance of this solution was measured at 540 nm against a reference wavelength of 660 nm. Results were then expressed as percent of control cultures incubated in the same conditions without drug or agent. […]
The action of various ionophores and amphiphilic amines on the cytotoxicity of propranolol and chloroquine was determined, following the procedures of Example 1. […]

Molecule `CN1CCC[C@@H]1CCO[C@](C)(c1ccccc1)c1ccc(Cl)cc1` [Clemastine] has a CC50 at 16 h (Drug + Monensin) of 2.3e-05 M and a CC50 at 16 h (Drug Alone) of 1.9e-05 M.
